Values from PubChem BioAssay AID1259424 (University of Nebraska Medical Center, 2018)
In all, the deposit lists about 14,000 reagents; this is an unselected part. 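Higher correlation or smaller distance means closer resemblance to KSR1 loss; control wells, including KSR1 knockdowns, recur on many plates.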 Reagent sequences are not shown. Not stated in the record: the time to read-out.

Screen: 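Find knockdowns that reproduce the expression shifts seen after KSR1 loss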 (primary screen)
Cell system: human HCT116 colon cancer cells
Reagent: siRNA pool against human genes, 50 nM
Measurement: 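Log2 levels of six mRNAs (branched-DNA multiplex), adjusted by two reference genes and the non-targeting median, then scored against the average KSR1 knockdown pattern as Pearson r and euclidean distance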
Reading the numbers: mean correlation with KSR1 profile and KSR1 correlation: higher = expression change more like KSR1 knockdown; mean distance from KSR1 profile: higher = expression change less like KSR1 knockdown

| target gene | mean correlation with KSR1 profile | mean distance from KSR1 profile | KSR1 correlation, replicate 1 | KSR1 correlation, replicate 2 | KSR1 correlation, replicate 3 |
| --- | --- | --- | --- | --- | --- |
| DUSP23 (dual specificity phosphatase 23) | -0.132 | 1.49 | -0.243 | -0.0443 | -0.191 |
| GSS (glutathione synthetase) | -0.238 | 3.08 | -0.0287 | -0.312 | -0.647 |
| NPAS3 (neuronal PAS domain protein 3) | 0.255 | 1.69 | 0.551 | 0.0399 | 0.277 |
| TOB1 (transducer of ERBB2, 1) | 0.676 | 1.38 | 0.618 | 0.715 | 0.475 |
| SLC3A2 | -0.352 | 2.15 | -0.354 | -0.481 | -0.136 |
| THBS1 (thrombospondin 1) | 0.255 | 1.61 | 0.318 | 0.108 | 0.136 |
| SHB (SH2 domain containing adaptor protein B) | -0.0129 | 1.97 | 0.271 | -0.482 | -0.17 |
| HS3ST3A1 (heparan sulfate-glucosamine 3-sulfotransferase 3A1) | -0.163 | 2.96 | 0.0387 | -0.485 | -0.0656 |
| ANAPC15 (anaphase promoting complex subunit 15) | -0.252 | 1.92 | -0.255 | -0.394 | -0.0737 |
| LDB1 (LIM domain binding 1) | 0.0995 | 1.9 | 0.334 | 0.188 | -0.000562 |
| C9orf78 (chromosome 9 open reading frame 78) | 0.76 | 1.32 | 0.767 | 0.508 | 0.867 |
| CSDE1 (cold shock domain containing E1) | 0.0913 | 1.34 | -0.201 | 0.463 | 0.38 |
| FTHL17 (ferritin heavy chain like 17) | 0.158 | 6.16 | 0.386 | 0.0552 | 0.403 |
| RGS14 (regulator of G protein signaling 14) | 0.665 | 1.67 | 0.643 | 0.682 | 0.739 |
| FCGBP (Fc gamma binding protein) | 0.0577 | 2.64 | 0.106 | 0.0293 | -0.101 |
| PNMA6A (PNMA family member 6A) | 0.243 | 4.89 | 0.295 | 0.185 | 0.0416 |
| RIPOR1 (RHO family interacting cell polarization regulator 1) | -0.00931 | 3.17 | 0.0835 | -0.121 | 0.087 |
| LY6G6D (lymphocyte antigen 6 family member G6D) | -0.2 | 3.77 | -0.0612 | 0.0169 | -0.34 |
| IMPDH2 (inosine monophosphate dehydrogenase 2) | -0.235 | 4.33 | -0.14 | -0.333 | -0.319 |
| PGRMC1 (progesterone receptor membrane component 1) | -0.718 | 2.48 | -0.78 | -0.78 | -0.75 |
| BCLAF1 (BCL2 associated transcription factor 1) | 0.0403 | 1.72 | 0.439 | 0.516 | -0.344 |
| DNAI1 (dynein axonemal intermediate chain 1) | -0.362 | 2.64 | -0.295 | -0.424 | -0.371 |
| KBTBD2 (kelch repeat and BTB domain containing 2) | -0.648 | 1.64 | -0.29 | -0.777 | -0.555 |
| EHMT1 (euchromatic histone lysine methyltransferase 1) | 0.591 | 2.04 | 0.637 | 0.723 | 0.433 |
| PTPN9 (protein tyrosine phosphatase non-receptor type 9) | -0.485 | 1.57 | -0.241 | -0.862 | -0.207 |
| ZBTB18 (zinc finger and BTB domain containing 18) | -0.253 | 2.14 | -0.244 | -0.131 | -0.206 |
| SLC27A3 | -0.686 | 2.53 | -0.691 | -0.719 | -0.541 |
| TNK2 (tyrosine kinase non receptor 2) | 0.277 | 1.45 | 0.313 | 0.478 | -0.524 |
| PUM2 (pumilio RNA binding family member 2) | -0.232 | 1.91 | -0.18 | -0.344 | -0.0888 |
| SRD5A2 (steroid 5 alpha-reductase 2) | 0.184 | 1.98 | 0.201 | 0.144 | 0.192 |
| ANO10 (anoctamin 10) | -0.476 | 2.86 | -0.488 | -0.448 | -0.326 |
| DENND4B (DENN domain containing 4B) | -0.148 | 1.49 | -0.379 | -0.568 | 0.503 |
| CDH10 (cadherin 10) | 0.438 | 1.53 | 0.61 | 0.533 | 0.185 |
| PLXNA2 (plexin A2) | -0.00973 | 1.2 | -0.0062 | 0.292 | -0.0945 |
| CLTCL1 (clathrin heavy chain like 1) | -0.233 | 2.95 | -0.223 | -0.139 | -0.406 |
| ANGEL1 (angel homolog 1) | -0.755 | 3.63 | -0.668 | -0.797 | -0.551 |
| MND1 (meiotic nuclear divisions 1) | 0.872 | 0.683 | 0.701 | 0.84 | 0.905 |
| ZMAT5 (zinc finger matrin-type 5) | -0.103 | 4.02 | 0.0132 | 0.0909 | -0.468 |
| HGH1 (HGH1 cochaperone) | 0.15 | 2.3 | 0.227 | 0.166 | 0.126 |
| FSTL5 (follistatin like 5) | -0.47 | 1.98 | -0.467 | -0.443 | -0.78 |
| CIAO1 (cytosolic iron-sulfur assembly component 1) | -0.511 | 2.18 | -0.585 | -0.466 | -0.61 |
| H2AB3 (H2A.B variant histone 3) | 0.723 | 1.38 | 0.553 | 0.756 | 0.671 |
| NOTCH3 (notch receptor 3) | -0.665 | 1.48 | -0.0774 | 0.0104 | -0.834 |
| CCDC177 (coiled-coil domain containing 177) | 0.0527 | 1.23 | 0.041 | -0.397 | 0.295 |
| TIMM50 (translocase of inner mitochondrial membrane 50) | 0.437 | 1.02 | 0.527 | 0.174 | 0.399 |
| HERC2 (HECT and RLD domain containing E3 ubiquitin protein ligase 2) | 0.58 | 0.989 | -0.142 | 0.481 | 0.847 |
| MMAA (metabolism of cobalamin associated A) | 0.804 | 1.14 | 0.821 | 0.717 | 0.751 |
| MAN2A2 (mannosidase alpha class 2A member 2) | -0.637 | 1.76 | -0.687 | -0.87 | -0.36 |
| BACH1 (BTB domain and CNC homolog 1) | 0.835 | 2.11 | 0.873 | 0.784 | 0.66 |
| MBTPS1 (membrane bound transcription factor peptidase, site 1) | 0.102 | 2.03 | 0.0586 | 0.0874 | 0.0728 |

2 consecutive records from above, quoted:
| target gene | mean correlation with KSR1 profile | mean distance from KSR1 profile | KSR1 correlation, replicate 1 | KSR1 correlation, replicate 2 | KSR1 correlation, replicate 3 |
| --- | --- | --- | --- | --- | --- |
| CCDC177 (coiled-coil domain containing 177) | 0.0527 | 1.23 | 0.041 | -0.397 | 0.295 |
| TIMM50 (translocase of inner mitochondrial membrane 50) | 0.437 | 1.02 | 0.527 | 0.174 | 0.399 |
